These are yes or no findings as the source states them, for the method shown. In cells and extracts the contact can be indirect. Some binding calls cover weakened binding; strength is not graded here. Tags and fused reporters may be left off the sequences shown.
Columns and labels:
[1] = biological target: T1, FLAG-HDAC6 (histone deacetylase 6) (UniProt Q9Z2V5); test: co-IP; HA-PKCζ and FLAG-HDAC6 co-transfected into HEK cells; Triton Lysis Buffer (50mM Tris pH 7.5, 150mM NaCl, 0.5% Triton X-100); 500μg lysate with 3μg tag antibody, agarose beads overnight at 4°C; reciprocal immunoprecipitations, Western blot with tag-specific antibodies
T1 sequence: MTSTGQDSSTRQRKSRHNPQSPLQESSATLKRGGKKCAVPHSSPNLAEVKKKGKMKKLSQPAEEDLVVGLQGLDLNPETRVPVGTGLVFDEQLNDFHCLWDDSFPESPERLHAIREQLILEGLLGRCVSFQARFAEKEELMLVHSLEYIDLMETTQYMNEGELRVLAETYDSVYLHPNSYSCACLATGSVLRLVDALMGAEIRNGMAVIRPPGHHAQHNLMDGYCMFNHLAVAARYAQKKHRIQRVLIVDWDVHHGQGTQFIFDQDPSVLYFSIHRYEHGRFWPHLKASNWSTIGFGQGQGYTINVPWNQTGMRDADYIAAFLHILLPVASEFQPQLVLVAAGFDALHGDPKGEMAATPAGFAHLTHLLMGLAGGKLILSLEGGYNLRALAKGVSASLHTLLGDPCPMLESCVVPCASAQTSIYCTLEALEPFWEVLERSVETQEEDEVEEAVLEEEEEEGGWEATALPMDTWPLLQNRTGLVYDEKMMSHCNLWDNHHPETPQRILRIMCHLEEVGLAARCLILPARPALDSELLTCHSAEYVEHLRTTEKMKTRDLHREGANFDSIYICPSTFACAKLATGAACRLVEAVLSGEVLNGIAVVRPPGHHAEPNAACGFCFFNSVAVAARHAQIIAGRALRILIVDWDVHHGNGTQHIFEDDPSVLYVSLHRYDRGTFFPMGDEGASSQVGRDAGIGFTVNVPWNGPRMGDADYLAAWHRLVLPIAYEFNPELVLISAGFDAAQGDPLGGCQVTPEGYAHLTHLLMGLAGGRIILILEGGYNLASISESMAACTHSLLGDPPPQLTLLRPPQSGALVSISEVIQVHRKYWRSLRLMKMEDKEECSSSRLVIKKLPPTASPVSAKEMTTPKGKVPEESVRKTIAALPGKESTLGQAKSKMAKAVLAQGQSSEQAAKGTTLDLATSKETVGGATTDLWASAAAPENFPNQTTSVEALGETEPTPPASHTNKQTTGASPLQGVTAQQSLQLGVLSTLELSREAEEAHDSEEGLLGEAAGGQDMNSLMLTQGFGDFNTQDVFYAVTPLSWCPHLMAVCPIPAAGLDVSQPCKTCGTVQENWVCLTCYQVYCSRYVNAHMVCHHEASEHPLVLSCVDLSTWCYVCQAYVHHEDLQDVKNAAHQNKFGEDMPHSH

[2] = biological target: T2, HA-PKCζ (zeta isoform of Protein Kinase C, atypical PKC) (UniProt P09217); test: as above
T2 sequence: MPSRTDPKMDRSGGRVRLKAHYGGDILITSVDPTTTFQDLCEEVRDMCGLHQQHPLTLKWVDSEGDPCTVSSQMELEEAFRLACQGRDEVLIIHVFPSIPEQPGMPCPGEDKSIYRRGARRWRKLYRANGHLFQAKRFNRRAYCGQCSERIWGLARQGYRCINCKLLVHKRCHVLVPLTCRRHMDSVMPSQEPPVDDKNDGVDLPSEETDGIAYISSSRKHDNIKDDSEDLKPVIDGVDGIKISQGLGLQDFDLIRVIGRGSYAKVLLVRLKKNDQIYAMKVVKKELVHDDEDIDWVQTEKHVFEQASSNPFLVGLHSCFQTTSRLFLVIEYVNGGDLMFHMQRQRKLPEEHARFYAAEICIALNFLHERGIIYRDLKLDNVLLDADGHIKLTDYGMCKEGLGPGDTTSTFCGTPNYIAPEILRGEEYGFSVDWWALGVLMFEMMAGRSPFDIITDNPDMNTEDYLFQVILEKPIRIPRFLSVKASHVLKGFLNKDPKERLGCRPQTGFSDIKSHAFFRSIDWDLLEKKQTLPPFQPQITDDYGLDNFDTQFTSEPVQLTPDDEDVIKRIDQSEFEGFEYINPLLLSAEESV

B1: HA-PKCζ (zeta isoform of Protein Kinase C, atypical PKC) (enzyme, UniProt P09217 1-592)
chain: MPSRTDPKMDRSGGRVRLKAHYGGDILITSVDPTTTFQDLCEEVRDMCGLHQQHPLTLKWVDSEGDPCTVSSQMELEEAFRLACQGRDEVLIIHVFPSIPEQPGMPCPGEDKSIYRRGARRWRKLYRANGHLFQAKRFNRRAYCGQCSERIWGLARQGYRCINCKLLVHKRCHVLVPLTCRRHMDSVMPSQEPPVDDKNDGVDLPSEETDGIAYISSSRKHDNIKDDSEDLKPVIDGVDGIKISQGLGLQDFDLIRVIGRGSYAKVLLVRLKKNDQIYAMKVVKKELVHDDEDIDWVQTEKHVFEQASSNPFLVGLHSCFQTTSRLFLVIEYVNGGDLMFHMQRQRKLPEEHARFYAAEICIALNFLHERGIIYRDLKLDNVLLDADGHIKLTDYGMCKEGLGPGDTTSTFCGTPNYIAPEILRGEEYGFSVDWWALGVLMFEMMAGRSPFDIITDNPDMNTEDYLFQVILEKPIRIPRFLSVKASHVLKGFLNKDPKERLGCRPQTGFSDIKSHAFFRSIDWDLLEKKQTLPPFQPQITDDYGLDNFDTQFTSEPVQLTPDDEDVIKRIDQSEFEGFEYINPLLLSAEESV
binding [1]: binds

B2: FLAG-HDAC6 (histone deacetylase 6) (enzyme, UniProt Q9Z2V5 1-1149)
chain: MTSTGQDSSTRQRKSRHNPQSPLQESSATLKRGGKKCAVPHSSPNLAEVKKKGKMKKLSQPAEEDLVVGLQGLDLNPETRVPVGTGLVFDEQLNDFHCLWDDSFPESPERLHAIREQLILEGLLGRCVSFQARFAEKEELMLVHSLEYIDLMETTQYMNEGELRVLAETYDSVYLHPNSYSCACLATGSVLRLVDALMGAEIRNGMAVIRPPGHHAQHNLMDGYCMFNHLAVAARYAQKKHRIQRVLIVDWDVHHGQGTQFIFDQDPSVLYFSIHRYEHGRFWPHLKASNWSTIGFGQGQGYTINVPWNQTGMRDADYIAAFLHILLPVASEFQPQLVLVAAGFDALHGDPKGEMAATPAGFAHLTHLLMGLAGGKLILSLEGGYNLRALAKGVSASLHTLLGDPCPMLESCVVPCASAQTSIYCTLEALEPFWEVLERSVETQEEDEVEEAVLEEEEEEGGWEATALPMDTWPLLQNRTGLVYDEKMMSHCNLWDNHHPETPQRILRIMCHLEEVGLAARCLILPARPALDSELLTCHSAEYVEHLRTTEKMKTRDLHREGANFDSIYICPSTFACAKLATGAACRLVEAVLSGEVLNGIAVVRPPGHHAEPNAACGFCFFNSVAVAARHAQIIAGRALRILIVDWDVHHGNGTQHIFEDDPSVLYVSLHRYDRGTFFPMGDEGASSQVGRDAGIGFTVNVPWNGPRMGDADYLAAWHRLVLPIAYEFNPELVLISAGFDAAQGDPLGGCQVTPEGYAHLTHLLMGLAGGRIILILEGGYNLASISESMAACTHSLLGDPPPQLTLLRPPQSGALVSISEVIQVHRKYWRSLRLMKMEDKEECSSSRLVIKKLPPTASPVSAKEMTTPKGKVPEESVRKTIAALPGKESTLGQAKSKMAKAVLAQGQSSEQAAKGTTLDLATSKETVGGATTDLWASAAAPENFPNQTTSVEALGETEPTPPASHTNKQTTGASPLQGVTAQQSLQLGVLSTLELSREAEEAHDSEEGLLGEAAGGQDMNSLMLTQGFGDFNTQDVFYAVTPLSWCPHLMAVCPIPAAGLDVSQPCKTCGTVQENWVCLTCYQVYCSRYVNAHMVCHHEASEHPLVLSCVDLSTWCYVCQAYVHHEDLQDVKNAAHQNKFGEDMPHSH
binding [2]: binds

From article PMC4393284
